# Experimental data: PubChem BioAssay AID504791 (Drosophila RNAi Screening Center, 2011)
# Aim: 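Factors in Argonaute-based small RNA production and activity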 (primary screen)
# Cells: Drosophila S2-derived reporter cells
# Reagents: long dsRNA against Drosophila genes, about 150-250 ng dsRNA per well (siRNA assay); about 80-120 ng (miRNA assay)
# Timing: about 5 days (siRNA assay); about 4 days (miRNA assay)
# Conditions: copper sulfate induction of reporters: 25 µM (siRNA assay); 200 mM stated (miRNA assay), 1-2 days before reading
# Measured: 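Per-well ratio of Renilla over firefly light, expressed relative to that plate's average ratio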
# Hit rule: 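First-pass picks had plate-scaled ratios over 1.5 for the siRNA assay, over 1.6 for the miRNA assay, or under 0.6; two distinct dsRNAs had to score alike on retest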
# The deposit covers about 23,000 reagents; shown is an unselected part of those that have a named target and a result. In the full data, 199 (0.86%) were called active. 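Plate-scaled ratios behind the calls are not deposited; printed light signals are raw; many rows marked increased or decreased are still called inactive.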 A number with no mark means an inactive call. Reagents against one gene are numbered here. Names joined by + are all predicted targets of the reagent. Reagent sequences are not shown. The record does not give: the direction of the score.
gene,reagent,stable siRNA reporter change,"stable assay Renilla, run 1 (luminescence)","stable assay firefly, run 1 (luminescence)"
Kmn1 (kinetochore Mis12-Ndc80 network component 1),1,,5956,4.83e5
Tpc2,1,,6760,4.43e5
BomS1 (Bomanin Short 1),1,,5219,5.40e5
CG8173,1,,6219,4.39e5
CG2931,1,,9387,4.70e5
Hpf1 (Histone PARylation factor 1),1,,8732,4.57e5
Ugt307A1 (UDP-glycosyltransferase family 307 member A1),1,,9425,6.59e5
MFS16 (Major Facilitator Superfamily Transporter 16),1,,6714,3.75e5
CG15754,1,,4516,3.07e5
Sec5 (Secretory 5),1,,26347,94081
"AP-1gamma (Adaptor Protein complex 1, gamma subunit)",1,,4855,3.86e5
NetA (Netrin-A),1,,5568,4.20e5
CG45263,1,,4827,3.55e5
CG45263,2,,7210,4.09e5
CG45263,3,,7443,5.48e5
CG45263,4,,7487,5.12e5
Boh2 (Buddy of Hmr 2),1,,6696,3.16e5
CG42323,1,,4656,3.85e5
CG42323,2,,11816,5.71e5
Mocs2A + Mocs2B,1,,5559,6.15e5
Mocs2A + Mocs2B,2,,7419,4.11e5
Acp53Ea (Accessory gland protein 53Ea),1,,6358,3.22e5
CG31717,1,,5442,4.31e5
PpV (Protein phosphatase V),1,,6194,3.23e5
PpV (Protein phosphatase V),2,,3915,2.80e5
Zw (Zwischenferment),1,,7020,4.95e5
Osi21 (Osiris 21),1,,7385,4.28e5
CG42372 + CG30100,1,,6176,5.00e5
DENR (Density regulated protein),1,,7383,4.65e5
CG5070,1,,5540,3.61e5
sov (small ovary),1,reporter ratio lowered past the hit cutoff,11317,1.59e6
MED22 (Mediator complex subunit 22),1,,4356,3.75e5
CG18302,1,,7440,3.75e5
CG32815,1,,5954,4.11e5
GABPI (beta4GalNAcTB pilot),1,,35520,5.52e5
Polr3H (RNA polymerase III subunit H),1,reporter ratio lowered past the hit cutoff,5496,5.63e5
pigeon,1,,1.56e5,1.26e6
Arfrp1 (ADP-ribosylation factor related protein 1),1,reporter ratio lowered past the hit cutoff,7630,7.17e5
Rab3GAP1 (RAB3 GTPase activating protein subunit 1),1,,7538,4.85e5
Rab3GAP1 (RAB3 GTPase activating protein subunit 1),2,,7431,4.09e5
CG33757,1,,7087,4.40e5
CG5114,1,reporter ratio raised past the hit cutoff,21619,4.86e5
CG12206,1,,6411,4.12e5
Cpr65Aw (Cuticular protein 65Aw),1,,4767,5.24e5
CG18735,1,,6547,3.62e5
CG6951,1,,7287,4.18e5
"ATPsynE (ATP synthase, subunit E)",1,,7196,4.51e5
CG13930,1,,6222,3.91e5
CG6873,1,,5947,6.40e5
Desat1 (Desaturase 1),1,,4944,2.48e5
Dhps (Deoxyhypusine synthase),1,,7023,3.85e5
ND-B8 (NADH dehydrogenase (ubiquinone) B8 subunit),1,,7709,4.40e5
CG15209,1,,5850,5.22e5
CG14495,1,,6474,3.32e5
Send1 (Spermathecal endopeptidase 1),1,,8431,3.87e5
Awh (Arrowhead),1,,6447,4.62e5
Orc2 (Origin recognition complex subunit 2),1,,7970,4.31e5
l(3)73Ah + CG32163,1,,10110,6.80e5
S-Lap8 (Sperm-Leucylaminopeptidase 8),1,,4815,3.44e5
S-Lap8 (Sperm-Leucylaminopeptidase 8),2,,9293,4.68e5
CG32295,1,reporter ratio raised past the hit cutoff,6895,3.09e5
Gr2a (Gustatory receptor 2a),1,,7218,4.42e5
"Alg14 (ALG14, UDP-N-acetylglucosaminyltransferase subunit)",1,,5251,4.66e5
CG15456,1,,6298,4.48e5
Trf5 (TBP-related factor 5),1,,8933,6.07e5
CG15059,1,,4924,3.95e5
Bruce (BIR repeat containing ubiquitin-conjugating enzyme),1,,7822,3.88e5
Diap2 (Death-associated inhibitor of apoptosis 2),1,,7862,3.13e5
RIC-3 (RIC3 acetylcholine receptor chaperone),1,,17347,3.70e5
RIC-3 (RIC3 acetylcholine receptor chaperone),2,,6362,4.73e5
CG15373,1,,5367,4.31e5
Pebp1 (Phosphatidylethanolamine-binding protein 1),1,,6874,3.76e5
meigo (medial glomeruli),1,,6435,3.59e5
CG7290,1,,7242,5.06e5
Spps (Sp1-like factor for pairing sensitive-silencing),1,,6318,2.85e5
Spps (Sp1-like factor for pairing sensitive-silencing),2,,4775,2.88e5
5-HT2B (5-hydroxytryptamine (serotonin) receptor 2B),1,,6771,3.59e5
5-HT2B (5-hydroxytryptamine (serotonin) receptor 2B),2,,7603,4.59e5
CG10481,1,,6496,5.68e5
CG13101,1,,6384,3.29e5
Cyp4d14 (Cytochrome P450 4d14),1,,5507,3.41e5
ssp2 (short spindle 2),1,,10075,4.72e5
CG9948,1,,7467,4.38e5

Part of the list above, reformatted.
{"gene": "CG42323", "reagent": 1, "stable assay Renilla, run 1 (luminescence)": 4656, "stable assay firefly, run 1 (luminescence)": 3.85e5}
{"gene": "CG42323", "reagent": 2, "stable assay Renilla, run 1 (luminescence)": 11816, "stable assay firefly, run 1 (luminescence)": 5.71e5}
{"gene": "Mocs2A + Mocs2B", "reagent": 1, "stable assay Renilla, run 1 (luminescence)": 5559, "stable assay firefly, run 1 (luminescence)": 6.15e5}
{"gene": "Mocs2A + Mocs2B", "reagent": 2, "stable assay Renilla, run 1 (luminescence)": 7419, "stable assay firefly, run 1 (luminescence)": 4.11e5}
{"gene": "Acp53Ea (Accessory gland protein 53Ea)", "reagent": 1, "stable assay Renilla, run 1 (luminescence)": 6358, "stable assay firefly, run 1 (luminescence)": 3.22e5}
{"gene": "CG31717", "reagent": 1, "stable assay Renilla, run 1 (luminescence)": 5442, "stable assay firefly, run 1 (luminescence)": 4.31e5}
{"gene": "PpV (Protein phosphatase V)", "reagent": 1, "stable assay Renilla, run 1 (luminescence)": 6194, "stable assay firefly, run 1 (luminescence)": 3.23e5}
{"gene": "PpV (Protein phosphatase V)", "reagent": 2, "stable assay Renilla, run 1 (luminescence)": 3915, "stable assay firefly, run 1 (luminescence)": 2.80e5}
